This is an account of results in article PMC8946178.

These are yes or no findings as the source states them, for the method shown. In cells and extracts the contact can be indirect. These calls come from enrichment with a bait or labelling near it, and not all partners need be listed.

For this experiment, the target named is Flag-HSP70. In words: affinity purification with mass spectrometry; HEK 293T cells transfected with Flag-HSP70; IP with anti-IgG/anti-Flag and protein A/G agarose beads; SDS-PAGE, silver stain, bands cut for mass spectrometry (Q-Exactive, Mascot 2.2).

B1: KANK2 (KN motif and ankyrin repeat domains 2) (protein, UniProt Q63ZY3 1-851)
chain: MAQVLHVPAPFPGTPGPASPPAFPAKDPDPPYSVETPYGYRLDLDFLKYVDDIEKGHTLRRVAVQRRPRLSSLPRGPGSWWTSTESLCSNASGDSRHSAYSYCGRGFYPQYGALETRGGFNPRVERTLLDARRRLEDQAATPTGLGSLTPSAAGSTASLVGVGLPPPTPRSSGLSTPVPPSAGHLAHVREQMAGALRKLRQLEEQVKLIPVLQVKLSVLQEEKRQLTVQLKSQKFLGHPTAGRGRSELCLDLPDPPEDPVALETRSVGTWVRERDLGMPDGEAALAAKVAVLETQLKKALQELQAAQARQADPQPQAWPPPDSPVRVDTVRVVEGPREVEVVASTAAGAPAQRAQSLEPYGTGLRALAMPGRPESPPVFRSQEVVETMCPVPAAATSNVHMVKKISITERSCDGAAGLPEVPAESSSSPPGSEVASLTQPEKSTGRVPTQEPTHREPTRQAASQESEEAGGTGGPPAGVRSIMKRKEEVADPTAHRRSLQFVGVNGGYESSSEDSSTAENISDNDSTENEAPEPRERVPSVAEAPQLRPAGTAAAKTSRQECQLSRESQHIPTAEGASGSNTEEEIRMELSPDLISACLALEKYLDNPNALTERELKVAYTTVLQEWLRLACRSDAHPELVRRHLVTFRAMSARLLDYVVNIADSNGNTALHYSVSHANFPVVQQLLDSGVCKVDKQNRAGYSPIMLTALATLKTQDDIETVLQLFRLGNINAKASQAGQTALMLAVSHGRVDVVKALLACEADVNVQDDDGSTALMCACEHGHKEIAGLLLAVPSCDISLTDRDGSTALMVALDAGQSEIASMLYSRMNIKCSFAPMSDDESPTSSSAEE
Turning to B1, the binding result is “binds”.
